Data taken from publication PMC7145394, “Molecular and Low-Resolution Structural Characterization of the Na^+-Translocating Glutaconyl-CoA Decarboxylase From Clostridium symbiosum” (Frontiers in Microbiology, 2020).
No constants are given. Whether binding was seen depends on the method and setting. In cells and extracts the contact can be indirect. Here binding means that the protein was enriched with, or labelled near, the bait; the list need not be complete.

Experiments:
[1] = target: T1, GcdC2, biotin carrier subunit of glutaconyl-CoA decarboxylase (Gcd) from Clostridium symbiosum (Clostridium symbiosum (endogenous in C. symbiosum DSM 934)) (UniProt B7TVP3); experiment: affinity purification with mass spectrometry; Gcd solubilized from C. symbiosum membranes with 2% DDM in buffer A (50 mM phosphate pH 7.0, 400 mM NaCl, 0.05% DDM), loaded on monomeric avidin agarose, eluted with a biotin step gradient (0-2 mM); bands of SDS-PAGE identified by MALDI-TOF MS
T1 sequence (chain, biotin covalently bound (C-terminal region)): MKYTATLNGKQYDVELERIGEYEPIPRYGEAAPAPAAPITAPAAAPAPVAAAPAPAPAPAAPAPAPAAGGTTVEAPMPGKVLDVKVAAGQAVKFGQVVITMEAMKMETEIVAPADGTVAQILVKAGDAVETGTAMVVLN

[2] = target: T2, GcdC1, biotin carrier subunit of glutaconyl-CoA decarboxylase (Gcd) from Clostridium symbiosum (Clostridium symbiosum (endogenous in C. symbiosum DSM 934)) (UniProt B7TVP4); experiment: as above
T2 sequence (chain, biotin covalently bound (C-terminal region)): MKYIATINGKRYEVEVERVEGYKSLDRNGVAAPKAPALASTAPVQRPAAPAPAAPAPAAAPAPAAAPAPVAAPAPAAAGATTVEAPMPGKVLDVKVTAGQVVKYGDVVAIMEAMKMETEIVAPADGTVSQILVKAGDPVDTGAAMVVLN

B1: GcdB, subunit of glutaconyl-CoA decarboxylase (Gcd) from Clostridium symbiosum (enzyme, UniProt B7TVP5 1-379, looked up)
chain: MNFFEIMGEMLAQSGFTALTWKNLVMFAISFVLLYMAIKKQYEPLLLLPIAFGMFLANLPLADLMKESEPWYTQGVLRIMYGGVKSSLFPCLIFLCVGAMTDFGPLIANPISLLLGAAAQFGIYIAFMLANATGLFTVGEAAAIGIIGGADGPTAIYIANNLAPDLVAPIAVAAYSYMALIPMIQPPIMKLLTTKKERAIVMKQLRKVSKVEKVVFPVFVVLFCSLLLPSVAPLLGMLMLGNLFRESGVVERLSDTAQNALCNIVTIMLGTTVGATANGDIFLRVQTIAIIAMGLMAFCFSTVGGVLLGKLLCVVTGGKINPLIGSAGVSAVPMAARVSQTVGSKENPTNFLLMHAMGPNVAGVIGSAVAAGFFMLIFK
notes: GcdB, membrane-spanning subunit (11 putative transmembrane helices) of glutaconyl-CoA decarboxylase, Clostridium symbiosum, 35 kDa (39 kDa in the introduction)
- binding [1]: binds
- binding [2]: binds
